Taken from: PubChem BioAssay AID743121 (NCATS, 2013)
In all, the deposit lists about 26,000 reagents; below is a random part of them. 167 of all reagents (0.63%) count as active. 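Calls are per gene from RSA p-values that are not deposited; an individual active-marked siRNA can sensitise only weakly.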 A number with no mark means an inactive call. Reagents against one gene are numbered here. Further read-outs or replicates are left out here.

Assay: 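Genes whose silencing strengthens cell killing by camptothecin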 (primary screen)
Cells: MDA-MB-231 cells, a human breast cancer line
Knock-down reagent: single siRNA against human genes, 20 nM siRNA (0.8 pmol per well)
Duration: 120 h (drug added 48 h after transfection, read 72 h later)
Treatment: camptothecin 20 nM (about EC30) for 72 h; vehicle 0.1% DMSO in parallel plates
Measured: 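CellTiter-Glo ATP signal, scaled to control siRNA as percent viability; sensitisation given as log2 of untreated divided by camptothecin-treated viability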
Reading the numbers: log2 vehicle/camptothecin viability: higher = stronger sensitisation to camptothecin; viability with camptothecin: higher = more viable cells
Hit rule: 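Active genes have an RSA gene-level p-value below 0.001, computed from the ratios of their separate siRNAs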

| gene knocked down | siRNA no. | log2 vehicle/camptothecin viability | viability with camptothecin (% of control) |
| --- | --- | --- | --- |
| ROBO4 | 1 | -0.214 | 64.6 |
| ROBO4 | 2 | -0.185 | 69.8 |
| ROBO4 | 3 | -0.388 | 67.7 |
| ROBO4 | 4 | 0.0177 | 38.4 |
| SLC52A1 | 1 | 1.84 | 21.2 |
| SLC52A1 | 2 | -0.0579 | 76.5 |
| SLC52A1 | 3 | -0.286 | 102 |
| SLC52A1 | 4 | -0.371 | 92.9 |
| SLC25A19 | 1 | -0.311 | 79.3 |
| SLC25A19 | 2 | -0.275 | 39.1 |
| SLC25A19 | 3 | -0.384 | 103 |
| SLC25A19 | 4 | -0.547 | 82.2 |
| EPHA5 | 1 | -0.185 | 131 |
| EPHA5 | 2 | -0.222 | 48.4 |
| EPHA5 | 3 | -0.1 | 24.2 |
| EPHA5 | 4 | -0.54 | 32.5 |
| FBXO7 | 1 | 0.803 | 34.9 |
| FBXO7 | 2 | -0.118 | 38.4 |
| FBXO7 | 3 | -0.151 | 87.3 |
| FBXO7 | 4 | 0.0802 | 76.9 |
| HDAC2 | 1 | -0.0551 | 62 |
| HDAC2 | 2 | -0.0254 | 97.8 |
| HDAC2 | 3 | 0.0704 | 101 |
| HDAC2 | 4 | -0.539 | 81.3 |

A stretch from the list above, for reference:
| gene knocked down | siRNA no. | log2 vehicle/camptothecin viability | viability with camptothecin (% of control) |
| --- | --- | --- | --- |
| SLC52A1 | 4 | -0.371 | 92.9 |
| SLC25A19 | 1 | -0.311 | 79.3 |
| SLC25A19 | 2 | -0.275 | 39.1 |
| SLC25A19 | 3 | -0.384 | 103 |
| SLC25A19 | 4 | -0.547 | 82.2 |

Next results follow:
| gene knocked down | siRNA no. | log2 vehicle/camptothecin viability | viability with camptothecin (% of control) |
| --- | --- | --- | --- |
| PGGT1B | 1 | -0.438 | 102 |
| PGGT1B | 2 | -0.606 | 78.1 |
| PGGT1B | 3 | -0.247 | 12.4 |
| PGGT1B | 4 | -0.259 | 103 |
| FAAH | 1 | 0.0514 | 82 |
| FAAH | 2 | 0.693 | 20.7 |
| FAAH | 3 | -0.235 | 63.9 |
| FAAH | 4 | 0.192 | 72.7 |
| SPC24 | 1 | -0.87 | 69.1 |
| SPC24 | 2 | -0.507 | 91.6 |
| SPC24 | 3 | -0.352 | 83.5 |
| SPC24 | 4 | 0.337 | 58.4 |
| USP9Y | 1 | -0.146 | 120 |
| USP9Y | 2 | -0.386 | 37.5 |
| USP9Y | 3 | -0.033 | 75.2 |
| USP9Y | 4 | -0.394 | 94.4 |
| KHK | 1 | -0.0355 | 45.1 |
| KHK | 2 | 0.104 | 94.2 |
| KHK | 3 | -0.392 | 47.7 |
| KHK | 4 | -0.118 | 87.7 |
| KCNG1 | 1 | -0.464 | 91.2 |
| KCNG1 | 2 | -0.762 | 49.1 |
| KCNG1 | 3 | -0.3 | 93.8 |
| KCNG1 | 4 | -0.665 | 97.4 |
| SNCA | 1 | -0.0633 | 102 |
| SNCA | 2 | 0.693 | 40.7 |
| SNCA | 3 | -0.111 | 78.6 |
| SNCA | 4 | 0.166 | 83.3 |
| MLKL | 1 | -0.0324 | 99.2 |
| MLKL | 2 | -0.328 | 91.6 |
| MLKL | 3 | -0.14 | 102 |
| MLKL | 4 | 0.0117 | 53.5 |
| MLKL | 5 | -0.0233 | 109 |
| MLKL | 6 | -0.225 | 108 |
| MLKL | 7 | -0.035 | 88.6 |
| RBP4 | 1 | -0.538 | 57.4 |
| RBP4 | 2 | -0.00678 | 51 |
| RBP4 | 3 | 0.334 | 33.7 |
| RBP4 | 4 | -0.492 | 48.7 |
| ENO1 | 1 | -0.106 | 94.8 |
| ENO1 | 2 | -0.0901 | 74 |
| ENO1 | 3 | -0.182 | 73.4 |
| CD3G | 1 | -0.0891 | 61.2 |
| CD3G | 2 | -0.635 | 67.2 |
| CD3G | 3 | -0.0541 | 65.4 |
| CD3G | 4 | -0.392 | 81.4 |
